# Source: PubChem BioAssay AID2685 (National Center for Advancing Translational Sciences (NCATS), 2010)
# Hit rate of the full screen: of about 320,000 compounds, about 2,100 (0.66%) were called active. The shares of active, inactive and inconclusive entries below differ from those in the screen. The call rests on the fitted dose curve; in most records, active means well fitted inhibition curve with a large enough effect in the signal ratio, with a control signal flat (not every such curve was filed as active); inconclusive means small, poorly fitted or top-dose-only effect, or effect the other way, or a change in a side signal; inactive means flat fitted curve, though single readings scatter; the % refers to the signal ratio. Potencies of inconclusive entries are doubtful fits and often do not repeat.
# Assay: qHTS Assay for Lipid Storage Modulators in Drosophila S3 Cells
# Details: BODIPY lipid droplet fluorescence, 18-24 h, cells fed with added oleic acid; lipid storage change, negative = inhibition: at 46.1 µM (top of the series) unless noted
# Method in brief: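 Drosophila S3 cells loaded with oleic acid (400 uM, as added) and compounds at several concentrations; lipid droplets imaged by 488-nm laser-scanning cytometry, 500–530 nm intensity and object ratio to cell channel. Percent activity normalized to 20 uM Triacsin C.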
# On the % scale 0 is the no-effect control and ±100 the full control effect; potency means the concentration at half of the fitted maximal effect.
Structure (SMILES),Potency,"lipid storage change, negative = inhibition"
CCOc1ccccc1NC(=O)/C(C#N)=C/c1c(C)nn(-c2ccccc2)c1Cl,"inconclusive: 29.1 µM [falling, single point]",–
N/C(Cc1cccc2ccccc12)=N\O,–,inconclusive: -1.04%
Cn1c(=O)cc(SCC(=O)NCC2COc3ccccc3O2)c2ccccc21 (centres undefined),–,inconclusive: 30.4%
COc1ccccc1CNC(=O)C1CCCN(S(=O)(=O)c2cccc3nonc23)C1 (centres undefined),"inconclusive: 4.11 µM [activator, partial curve]",–
Cc1ccc(C2=NS(=O)(=O)N(C)C(C(=O)Nc3ccc4c(c3)OCO4)=C2)cc1,–,inconclusive: -50%
CC(=O)c1c(C)[nH]c(C(=O)Nc2ccc3c(c2)OCCO3)c1C,–,inactive
CC(C)n1nc(C(=O)Nc2nc3ccccc3[nH]2)c2ccccc2c1=O,–,inconclusive: 39.3%
O=C(CN1C(=O)CSC1=O)Nc1ccccc1N1CCOCC1,–,inconclusive: 44.7%
O=C(O)c1ccccc1N1C(=O)C2C3CCC(C3)C2C1=O (centres undefined),–,inconclusive: -3.44%
O=C1CCC(C(=O)N2CCCCO2)CN1CCc1ccccc1 (centres undefined),"inconclusive: 4.61 µM [falling, single point]",–
CC(C)C(c1nnnn1CC1CCCO1)N1CCN(Cc2ccc3c(c2)OCO3)CC1 (centres undefined),–,inconclusive: -63.6%
O=C(CN1CCN(c2ccccc2)CC1)N/N=C/c1cccc(F)c1,–,inconclusive: 10.3%
CN1CCN(c2ccc(NC(=O)c3ccc([N+](=O)[O-])o3)cc2Cl)CC1,–,inconclusive: -100%
Clc1ccc2nc(CSc3nnc4ccccn34)cn2c1,–,inconclusive: -15.4%
CCN(CC)CCCNC(=O)N[C@@H](Cc1ccccc1)C(=O)O,–,inconclusive: -3.94%
COc1cccc(NC(=O)NC2(C(F)(F)F)Oc3ccccc3O2)c1,–,inconclusive: -5.46%
O=C(NCc1cccnc1)/C(=C/c1ccco1)NC(=O)c1ccccc1,"inconclusive: 20.6 µM [falling, partial curve, poor fit]",–
COc1cc(SC)ccc1C(=O)N1CCN(S(=O)(=O)/C=C/c2ccccc2)CC1,"inconclusive: 6.51 µM [falling, single point]",–
COc1ccc(CC(=O)Nc2c(C(=O)N3CCN(c4ccccc4)CC3)oc3ccccc23)cc1OC,"inconclusive: 4.11 µM [activator, full curve]",–
CN(C)c1ccc(CN(C)C2CCCCC2)cc1,–,inconclusive: -31.8%
CC1CN(C(=O)/C=C/c2ccc([N+](=O)[O-])s2)CC(C)O1 (centres undefined),–,inconclusive: -31.1%
O=C(O)/C(=C\c1cccs1)c1ccccc1,–,inconclusive: 27%
COc1ccc(-c2csc(Nc3ncccc3C)n2)cc1OC,"inconclusive: 6.51 µM [activator, full curve]",–
O=C(NCc1ccccc1)C(=O)Nc1nccs1,–,inconclusive: -15.7%
O=C(CCC1CCCC1)NNC(=O)c1ccc(F)cc1,"inconclusive: 11.6 µM [activator, partial curve]",–
Cc1ccc(-n2nnnc2SCC(=O)NCC2(N3CCCCC3)CCCCC2)c(C)c1,"inconclusive: 13 µM [falling, partial curve, poor fit]",–
C=CCN(CC=C)C(=O)Nc1ccc2nc(C)sc2c1,–,inconclusive: 37%

# As entered above:
# CN(C)c1ccc(CN(C)C2CCCCC2)cc1 | lipid storage change, negative = inhibition: inconclusive: -31.8%
# O=C(NCc1ccccc1)C(=O)Nc1nccs1 | lipid storage change, negative = inhibition: inconclusive: -15.7%

# Carrying on:

Structure (SMILES),Potency,"lipid storage change, negative = inhibition"
O=C(CSc1nnc(-c2cccnc2)n1Cc1ccco1)Nc1cccc(O)c1,–,inconclusive: -29.8%
Cc1ccc(C#N)c(SCc2nnc(-c3ccc(Cl)cc3)o2)n1,"inconclusive: 9.2 µM [activator, partial curve, poor fit]",–
COc1ccc(C(=O)NCCc2ccc(S(N)(=O)=O)cc2)cc1OC,–,inconclusive: -32.9%
COc1ccc(C(CC(=O)N2CCCCC2)NC(=O)C(F)(F)F)cc1 (centres undefined),–,inconclusive: 10.7%
Cc1onc(-c2ccccc2Cl)c1C(=O)NCC1CCCO1 (centres undefined),–,inconclusive: -1.74%
CCOc1ccccc1OCCC(=O)OCC(=O)Nc1c(C)cc(C)cc1C,–,inconclusive: -0.0338%
Cc1cccc(NS(=O)(=O)c2cc(Cl)ccc2Cl)n1,–,inconclusive: 90.1%
COc1ccc2c(c1)c1nc3n(c(=O)c1n2CC(=O)Nc1cc(C)[nH]n1)CCS3,–,inconclusive: -0.952%
O=C1c2ccccc2C(=O)N1CCc1csc(-c2ccccc2)n1,"inconclusive: 1.84 µM [activator, partial curve]",–
O=C(c1ccccn1)N(c1ccccc1)C1(C(=O)NC2CCCCC2)CCCCC1,–,inconclusive: -45.9%
CC(=O)NC(CCS(C)(=O)=O)C(=O)Nc1ccccc1 (centres undefined),–,inconclusive: 0.169%
CCCCn1c(CCC(=O)O)nc2cc(S(=O)(=O)N(C)C)ccc21,"inconclusive: 0.0046 µM [cytotoxic, full curve]",–
CC(=O)c1cccc(NC(=O)Cc2coc3cc4c(cc23)CCC4)c1,–,inconclusive: 24.2%
CCCCOCP(=O)(CC)COCCCC,–,inconclusive: -198%
COCCCn1c(=O)c2sccc2n2c(CCCC(=O)NCC3CCCO3)nnc12 (centres undefined),active: 18.4 µM,–
O=C(c1ccc2c(c1)OCCO2)N(c1ccccn1)C1CCCCC1,–,inconclusive: 6.8%
O=C(Nc1ccc(C(F)(F)F)cc1)c1ccc2nc[nH]c2c1,–,inconclusive: -0.174%
COc1cc(/C=C2\C(=O)N(CCC#N)N=C2C)ccc1OCC(=O)Nc1ccccc1,–,inconclusive: -12.8%
COc1ccc(NC(=S)NNC(=O)c2ccccc2OC(F)F)cc1,"inconclusive: 6.51 µM [activator, single point]",–
CCCc1cc(=O)oc2c3c(cc(OCC(=O)N[C@@H](C)C(=O)O)c12)OC(C)(C)CC3,"inconclusive: 1.3 µM [falling, full curve]",–
O=S(=O)(c1ccc(OCC(O)CN2CCc3ccccc3C2)cc1)N1CCOCC1 (centres undefined),"inconclusive: 11.6 µM [falling, partial curve]",–
CCCCNC(=S)N(C)/N=C/c1ccc2c(c1)OCO2,–,inconclusive: 17.6%
O=C(O)/C(=N/NC(=O)c1ccc(Cl)cc1)c1ccccc1,–,inconclusive: -13.9%
O=C(CSc1nncn1-c1ccccc1)N1CCCC1,–,inconclusive: 71.1%
C=CCOC(=O)C1=C(C)Nc2nnnn2C1c1cccc(OC)c1OC (centres undefined),"inconclusive: 0.366 µM [activator, full curve]",–
CC1(C)Cc2nc(-c3ccccc3)n3cnnc3c2CO1,–,inconclusive: -36.1%
CCOC(=O)NC1(C(F)(F)F)C(=O)NC(C)=C1C#N (centres undefined),–,inconclusive: -17%

Structure (SMILES),Potency,"lipid storage change, negative = inhibition"
COc1cc(/C=N/Nc2cc(C)nc(NS(=O)(=O)c3ccccc3)n2)ccc1O,–,inconclusive: 21.1%
Cc1ccc(C(=O)c2cc(C)sc2NC(=O)CN2CCN(C(=O)c3ccco3)CC2)cc1,–,inconclusive: 59.1%
COc1ccc(-n2c(COc3ccccc3)n[nH]c2=S)cc1,"inconclusive: 6.51 µM [falling, single point]",–
Cc1ccc(C(=O)O)c(C(=O)Nc2nc3ccccc3s2)c1,–,inconclusive: -14.1%
O=C(CSc1ncn[nH]1)NCc1ccc2c(c1)OCO2,–,inconclusive: 12.5%
Cc1ccc(/C=C/S(=O)(=O)NCc2ccc(F)cc2)cc1,–,inconclusive: -3.6%
CSc1nnc(SCC(=O)N(C)c2c(N)n(Cc3ccccc3)c(=O)[nH]c2=O)s1,–,inconclusive: 14%
CCCS(=O)(=O)N1CCCC(C(=O)NCCCOC(C)C)C1 (centres undefined),–,inconclusive: 22.9%
Cc1c(CC(=O)N2C[C@H]3C[C@@H](C2)c2cccc(=O)n2C3)c(=O)oc2cc3occ(C(C)(C)C)c3cc12,–,inconclusive: 23.9%
O=C(CSCc1ccccc1Br)N/N=C/c1ccc2c(c1)OCO2,–,inconclusive: -43.6%
CC1(NC(=O)/C=C/c2nc3ccccc3s2)CCS(=O)(=O)C1 (centres undefined),–,inconclusive: -16.1%
O=C(OCc1cc(=O)n2c(n1)sc1ccccc12)c1ccc(O)cc1,–,inconclusive: -11.6%
O=C(Cc1ccccc1)NCC(=O)N/N=C/c1ccc(Cl)cc1,–,inconclusive: 15.1%
COc1ccc(NS(=O)(=O)c2cc(NC(=O)c3ccccc3F)ccc2N2CCCC2)cc1,–,inconclusive: 8.13%
O=C(N/N=C/c1c(F)cccc1Cl)c1cc(C2CC2)[nH]n1,–,inconclusive: 40.9%
O=C(OCc1nnc(-c2ccccc2)o1)c1ccc2c(c1)OCO2,–,inconclusive: 0.107%
CN(C)CCN(C(=O)c1ccc(N2C(=O)CCC2=O)cc1)c1nc2cc3c(cc2s1)OCCO3,–,inconclusive: 9.44%
CC(=O)N1N=C(c2cccs2)CC1c1ccco1 (centres undefined),"inconclusive: 0.082 µM [falling, full curve]",–
CN(C)c1ccc(NC(=O)c2ccc(N3CCOCC3)nc2)cc1,"inconclusive: 4.11 µM [activator, single point]",–
COc1ccc(CCNC(=O)C2CCN(S(=O)(=O)c3ccc(C)cc3)CC2)cc1OC,–,inconclusive: -45.7%
COc1ccc(CN(C)C(=O)Cc2ccc(OC)c(S(=O)(=O)N3CCOCC3)c2)cc1,"inconclusive: 0.58 µM [falling, partial curve, poor fit]",–
Cc1cc(C)c(NC(=O)CNC(=O)CN(C)Cc2ccc(Br)s2)c(C)c1,–,inconclusive: 3.7%
CCN1C/C(=C/c2cccc([N+](=O)[O-])c2)C(=O)/C(=C/c2cccc([N+](=O)[O-])c2)C1,"inconclusive: 5.8 µM [falling, full curve]",–
O=C(CSc1nnc(-c2ccco2)o1)c1ccccc1,–,inconclusive: 36.8%
COc1ccc(NC(=O)CSc2cccc3cccnc23)c(OC)c1,"inconclusive: 0.651 µM [activator, full curve]",–

# 3 neighbouring compounds from above, quoted:
Structure (SMILES),Potency,"lipid storage change, negative = inhibition"
CCN(CC)CCCNC(=O)N[C@@H](Cc1ccccc1)C(=O)O,–,inconclusive: -3.94%
COc1cccc(NC(=O)NC2(C(F)(F)F)Oc3ccccc3O2)c1,–,inconclusive: -5.46%
O=C(NCc1cccnc1)/C(=C/c1ccco1)NC(=O)c1ccccc1,"inconclusive: 20.6 µM [falling, partial curve, poor fit]",–
